Laboratory results taken from publication PMC6753473.

target: GFP-tagged CAF1* catalytic mutant (DExAA) (UniProt Q9UIV1); assay: co-IP; GFP-CAF1 or GFP-CAF1* expressed in HEK293T cells, immunoprecipitated with anti-GFP antibody; precipitates incubated on ice with 12 μM purified MBP or MBP-tagged CIR for 10 min, washed, western blot of endogenous CCR4–NOT subunits

Substance	binding
endogenous CCR4a (from UniProt Q9ULM6 1-557) (enzyme)	binds
endogenous NOT2 (from UniProt Q9NZN8 1-540)	binds
endogenous NOT3 (from UniProt O75175 1-753)	binds

No constants are given. Whether binding was seen depends on the method and setting. In cells and extracts the contact can be indirect. Binding can be weak; no strength is given.
